Patent US20240398768A1, “METHODS OF TREATING SOLID TUMOR USING HETEROAROMATIC MACROCYCLIC ETHER COMPOUNDS” (Nuvalent, Inc., priority 2021, published 2024)
At least one compound was matched to its structure with a doubt left.

Tested on: NIH3T3 cells expressing ROS1 fusions with G2032R
Assay: Anchorage-independent colony formation assay
Format: cell-based
Conditions: at 100 nM
Method: Each inhibitor was paired with its own DMSO condition to serve as an accurate control. NIH3T3 cells expressing CD74-ROS1 or EZR-ROS1 wild-type or mutant fusions were plated in 0.4% agarose in complete medium at a density of 2,000 cells per 0.5 mL of agarose with DMSO or inhibitor at identical concentration to the bottom layer. Plates were incubated for 4 weeks, and each well was fed 3× per week with 75 μL of complete medium with or without inhibitor to match each plated condition to prevent drying of the agarose. Plates were read after 3 and 4 weeks using a GelCount™ (Oxford Optronix). Colony counts were averaged by condition and normalized to the colony counts from paired DMSO conditions. Data analysis and visualization was performed using Microsoft Excel and GraphPad Prism.

**Q.** For C[C@H]1Oc2cc(cnc2N)-c2c(nn(C)c2C#N)CN(C)C(=O)c2ccc(F)cc21 [Lorlatinib], which “inhibition of colony formation” value is on record?
**A.** weaker effects
